# Assay results: the supplement of paper PMC12067093, “Discovery and optimisation of a covalent ligand for TRIM25 and its application to targeted protein ubiquitination” (Chemical Science, 2025)
# By UniProt entry, the sequences of proteins in these tests, tags left out. Where a name states a change or a piece, a line headed by the entry shows the natural chain unless it says otherwise.
# UniProt Q9NXJ5: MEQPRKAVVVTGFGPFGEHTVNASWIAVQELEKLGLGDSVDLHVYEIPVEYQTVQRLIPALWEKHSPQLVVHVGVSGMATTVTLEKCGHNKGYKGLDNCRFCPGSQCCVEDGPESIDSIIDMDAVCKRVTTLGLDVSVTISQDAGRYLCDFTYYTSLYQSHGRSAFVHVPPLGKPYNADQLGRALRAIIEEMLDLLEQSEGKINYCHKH
# UniProt Q8N2W9: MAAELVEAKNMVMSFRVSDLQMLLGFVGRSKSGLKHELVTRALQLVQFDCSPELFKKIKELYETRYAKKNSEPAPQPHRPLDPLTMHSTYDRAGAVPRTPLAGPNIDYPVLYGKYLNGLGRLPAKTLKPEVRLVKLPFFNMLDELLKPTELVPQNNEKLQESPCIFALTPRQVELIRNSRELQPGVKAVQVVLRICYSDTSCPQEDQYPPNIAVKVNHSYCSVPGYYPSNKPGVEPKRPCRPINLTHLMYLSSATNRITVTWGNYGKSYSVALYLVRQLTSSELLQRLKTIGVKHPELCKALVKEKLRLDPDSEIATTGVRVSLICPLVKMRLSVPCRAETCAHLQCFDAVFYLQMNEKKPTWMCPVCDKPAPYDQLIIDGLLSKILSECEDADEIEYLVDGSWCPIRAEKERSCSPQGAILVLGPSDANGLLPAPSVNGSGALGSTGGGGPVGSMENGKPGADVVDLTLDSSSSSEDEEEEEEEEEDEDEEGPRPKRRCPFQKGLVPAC
# UniProt A6NDG6: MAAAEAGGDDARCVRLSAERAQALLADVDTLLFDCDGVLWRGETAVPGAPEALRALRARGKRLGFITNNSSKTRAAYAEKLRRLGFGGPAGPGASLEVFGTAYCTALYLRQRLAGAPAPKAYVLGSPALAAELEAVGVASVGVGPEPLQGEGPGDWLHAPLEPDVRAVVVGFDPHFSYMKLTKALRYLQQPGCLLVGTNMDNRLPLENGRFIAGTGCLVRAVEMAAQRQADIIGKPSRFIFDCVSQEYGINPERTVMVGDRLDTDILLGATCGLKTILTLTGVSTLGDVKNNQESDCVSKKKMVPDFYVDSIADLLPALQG
# UniProt O75925, whole entry, looked up: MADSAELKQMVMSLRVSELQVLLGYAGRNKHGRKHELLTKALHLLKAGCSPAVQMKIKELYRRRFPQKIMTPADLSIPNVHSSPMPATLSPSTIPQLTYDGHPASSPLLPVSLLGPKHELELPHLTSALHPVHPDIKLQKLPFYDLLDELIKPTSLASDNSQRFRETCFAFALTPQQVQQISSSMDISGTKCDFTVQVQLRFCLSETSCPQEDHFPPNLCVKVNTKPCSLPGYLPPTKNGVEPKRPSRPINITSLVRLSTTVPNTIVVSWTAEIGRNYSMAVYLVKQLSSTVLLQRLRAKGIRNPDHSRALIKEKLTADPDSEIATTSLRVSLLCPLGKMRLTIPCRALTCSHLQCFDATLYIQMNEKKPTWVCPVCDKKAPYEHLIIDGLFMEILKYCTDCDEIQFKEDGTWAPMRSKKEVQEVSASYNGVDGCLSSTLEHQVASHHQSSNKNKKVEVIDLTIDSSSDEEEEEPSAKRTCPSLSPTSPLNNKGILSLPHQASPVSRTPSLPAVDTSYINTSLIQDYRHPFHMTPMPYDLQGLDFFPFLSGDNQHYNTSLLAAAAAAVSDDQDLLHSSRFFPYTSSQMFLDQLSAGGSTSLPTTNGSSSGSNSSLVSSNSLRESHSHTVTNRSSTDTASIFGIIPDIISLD
# UniProt P52209: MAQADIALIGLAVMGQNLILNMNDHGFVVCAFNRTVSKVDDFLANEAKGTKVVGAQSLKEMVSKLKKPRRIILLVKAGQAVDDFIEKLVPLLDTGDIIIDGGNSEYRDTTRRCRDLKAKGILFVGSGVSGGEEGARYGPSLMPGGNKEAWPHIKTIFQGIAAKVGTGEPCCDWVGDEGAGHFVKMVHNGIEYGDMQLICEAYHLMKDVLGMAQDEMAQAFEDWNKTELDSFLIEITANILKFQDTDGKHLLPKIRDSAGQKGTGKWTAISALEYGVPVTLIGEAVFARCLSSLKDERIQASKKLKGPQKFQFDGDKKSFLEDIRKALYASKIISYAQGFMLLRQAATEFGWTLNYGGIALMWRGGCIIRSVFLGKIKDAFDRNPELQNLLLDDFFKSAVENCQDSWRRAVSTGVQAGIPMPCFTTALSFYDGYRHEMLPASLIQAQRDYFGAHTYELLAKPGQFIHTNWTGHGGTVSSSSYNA
# UniProt Q9H814, whole entry: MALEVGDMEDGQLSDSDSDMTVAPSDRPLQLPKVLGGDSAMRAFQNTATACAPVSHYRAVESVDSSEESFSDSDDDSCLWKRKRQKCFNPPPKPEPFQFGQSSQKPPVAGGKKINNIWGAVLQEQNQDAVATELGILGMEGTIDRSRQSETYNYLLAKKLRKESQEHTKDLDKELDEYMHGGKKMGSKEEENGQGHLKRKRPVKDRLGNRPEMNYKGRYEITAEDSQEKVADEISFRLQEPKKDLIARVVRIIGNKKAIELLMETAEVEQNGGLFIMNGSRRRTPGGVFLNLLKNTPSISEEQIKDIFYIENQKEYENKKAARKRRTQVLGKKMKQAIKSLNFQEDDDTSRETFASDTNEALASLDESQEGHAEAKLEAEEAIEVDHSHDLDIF
# UniProt O43175: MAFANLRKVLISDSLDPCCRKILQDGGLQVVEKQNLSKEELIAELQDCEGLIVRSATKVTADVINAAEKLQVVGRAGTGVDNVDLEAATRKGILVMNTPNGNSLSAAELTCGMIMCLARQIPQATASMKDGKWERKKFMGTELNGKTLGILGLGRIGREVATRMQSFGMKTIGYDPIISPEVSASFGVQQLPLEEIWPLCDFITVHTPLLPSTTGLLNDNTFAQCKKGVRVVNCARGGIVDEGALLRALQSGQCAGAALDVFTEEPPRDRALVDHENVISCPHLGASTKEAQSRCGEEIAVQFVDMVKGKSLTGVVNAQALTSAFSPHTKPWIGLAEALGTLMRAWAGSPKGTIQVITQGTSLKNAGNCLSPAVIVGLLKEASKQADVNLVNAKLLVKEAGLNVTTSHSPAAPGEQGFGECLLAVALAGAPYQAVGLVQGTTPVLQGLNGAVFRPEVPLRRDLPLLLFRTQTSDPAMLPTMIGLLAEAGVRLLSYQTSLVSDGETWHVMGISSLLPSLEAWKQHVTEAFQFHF
# UniProt P18669: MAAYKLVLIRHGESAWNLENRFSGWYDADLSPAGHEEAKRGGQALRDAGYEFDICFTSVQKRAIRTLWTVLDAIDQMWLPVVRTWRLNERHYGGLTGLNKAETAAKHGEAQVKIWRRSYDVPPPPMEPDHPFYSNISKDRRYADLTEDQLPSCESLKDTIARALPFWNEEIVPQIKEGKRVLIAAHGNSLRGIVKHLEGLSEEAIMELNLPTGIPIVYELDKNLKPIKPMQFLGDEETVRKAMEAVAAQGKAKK
# UniProt Q8IUZ5: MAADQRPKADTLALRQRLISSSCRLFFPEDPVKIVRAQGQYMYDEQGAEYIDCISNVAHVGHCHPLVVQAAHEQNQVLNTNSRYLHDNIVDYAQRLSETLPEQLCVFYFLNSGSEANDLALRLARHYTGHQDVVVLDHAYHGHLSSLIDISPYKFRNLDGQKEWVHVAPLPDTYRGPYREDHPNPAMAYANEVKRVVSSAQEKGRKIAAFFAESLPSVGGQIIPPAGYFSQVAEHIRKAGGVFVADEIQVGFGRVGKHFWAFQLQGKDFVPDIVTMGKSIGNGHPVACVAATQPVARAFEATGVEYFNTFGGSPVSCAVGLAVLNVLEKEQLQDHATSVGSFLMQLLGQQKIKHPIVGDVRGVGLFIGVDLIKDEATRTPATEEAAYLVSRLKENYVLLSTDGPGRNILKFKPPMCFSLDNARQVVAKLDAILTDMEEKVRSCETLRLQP
# UniProt Q9UIL8: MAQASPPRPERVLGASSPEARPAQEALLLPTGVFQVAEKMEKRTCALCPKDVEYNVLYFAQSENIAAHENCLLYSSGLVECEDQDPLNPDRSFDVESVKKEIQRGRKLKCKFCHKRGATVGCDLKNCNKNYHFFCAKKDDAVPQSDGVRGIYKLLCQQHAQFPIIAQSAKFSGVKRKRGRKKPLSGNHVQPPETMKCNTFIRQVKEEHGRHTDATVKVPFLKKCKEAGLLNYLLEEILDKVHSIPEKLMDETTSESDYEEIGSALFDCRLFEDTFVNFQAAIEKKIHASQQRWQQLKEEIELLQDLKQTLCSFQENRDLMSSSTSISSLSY
# UniProt Q8IWS0: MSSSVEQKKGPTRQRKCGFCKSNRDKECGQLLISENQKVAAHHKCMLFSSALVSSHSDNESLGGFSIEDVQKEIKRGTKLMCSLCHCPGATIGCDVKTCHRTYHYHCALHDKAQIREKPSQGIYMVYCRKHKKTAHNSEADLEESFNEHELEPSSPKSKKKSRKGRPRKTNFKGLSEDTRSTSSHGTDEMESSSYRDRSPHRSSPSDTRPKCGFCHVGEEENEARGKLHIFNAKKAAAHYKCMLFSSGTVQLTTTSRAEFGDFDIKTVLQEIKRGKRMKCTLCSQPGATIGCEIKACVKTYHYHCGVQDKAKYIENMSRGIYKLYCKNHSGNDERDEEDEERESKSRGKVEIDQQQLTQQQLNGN
# UniProt Q96GD0: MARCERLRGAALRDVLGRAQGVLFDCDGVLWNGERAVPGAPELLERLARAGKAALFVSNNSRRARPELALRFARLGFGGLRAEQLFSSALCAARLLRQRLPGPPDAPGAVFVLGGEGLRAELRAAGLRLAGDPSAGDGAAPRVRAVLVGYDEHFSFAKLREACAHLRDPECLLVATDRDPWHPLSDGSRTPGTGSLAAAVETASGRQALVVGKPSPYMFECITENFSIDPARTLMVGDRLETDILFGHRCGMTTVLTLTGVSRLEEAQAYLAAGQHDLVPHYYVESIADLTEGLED
# UniProt Q01813: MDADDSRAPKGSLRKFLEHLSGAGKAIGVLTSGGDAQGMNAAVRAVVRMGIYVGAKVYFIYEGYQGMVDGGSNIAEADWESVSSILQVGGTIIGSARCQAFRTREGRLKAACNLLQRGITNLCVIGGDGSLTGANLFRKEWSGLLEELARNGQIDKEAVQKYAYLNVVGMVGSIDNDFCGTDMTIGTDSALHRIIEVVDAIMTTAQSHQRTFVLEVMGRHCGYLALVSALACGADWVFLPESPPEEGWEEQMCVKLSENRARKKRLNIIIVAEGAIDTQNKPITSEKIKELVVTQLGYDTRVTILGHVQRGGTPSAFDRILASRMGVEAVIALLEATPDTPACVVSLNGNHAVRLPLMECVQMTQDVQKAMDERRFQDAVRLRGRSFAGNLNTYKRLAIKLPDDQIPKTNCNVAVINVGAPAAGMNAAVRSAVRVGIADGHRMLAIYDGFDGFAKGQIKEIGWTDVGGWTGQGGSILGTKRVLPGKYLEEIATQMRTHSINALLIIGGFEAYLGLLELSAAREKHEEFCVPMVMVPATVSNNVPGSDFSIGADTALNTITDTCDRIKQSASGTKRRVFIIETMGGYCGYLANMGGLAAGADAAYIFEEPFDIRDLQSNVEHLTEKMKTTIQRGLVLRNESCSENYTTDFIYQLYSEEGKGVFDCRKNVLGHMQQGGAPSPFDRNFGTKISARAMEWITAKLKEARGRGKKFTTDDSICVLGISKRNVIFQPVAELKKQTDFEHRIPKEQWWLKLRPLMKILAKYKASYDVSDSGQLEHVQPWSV
# UniProt P53609, whole entry, looked up: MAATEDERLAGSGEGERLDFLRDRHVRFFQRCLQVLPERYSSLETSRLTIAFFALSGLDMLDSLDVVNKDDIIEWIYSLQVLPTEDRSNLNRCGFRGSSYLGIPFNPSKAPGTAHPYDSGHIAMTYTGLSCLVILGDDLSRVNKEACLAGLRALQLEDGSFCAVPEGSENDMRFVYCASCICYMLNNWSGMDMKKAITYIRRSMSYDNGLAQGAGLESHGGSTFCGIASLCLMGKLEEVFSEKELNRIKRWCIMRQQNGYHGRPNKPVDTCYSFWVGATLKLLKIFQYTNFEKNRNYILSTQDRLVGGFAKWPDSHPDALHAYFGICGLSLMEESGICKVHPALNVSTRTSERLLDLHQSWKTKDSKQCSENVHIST
# UniProt O00541, whole entry, looked up: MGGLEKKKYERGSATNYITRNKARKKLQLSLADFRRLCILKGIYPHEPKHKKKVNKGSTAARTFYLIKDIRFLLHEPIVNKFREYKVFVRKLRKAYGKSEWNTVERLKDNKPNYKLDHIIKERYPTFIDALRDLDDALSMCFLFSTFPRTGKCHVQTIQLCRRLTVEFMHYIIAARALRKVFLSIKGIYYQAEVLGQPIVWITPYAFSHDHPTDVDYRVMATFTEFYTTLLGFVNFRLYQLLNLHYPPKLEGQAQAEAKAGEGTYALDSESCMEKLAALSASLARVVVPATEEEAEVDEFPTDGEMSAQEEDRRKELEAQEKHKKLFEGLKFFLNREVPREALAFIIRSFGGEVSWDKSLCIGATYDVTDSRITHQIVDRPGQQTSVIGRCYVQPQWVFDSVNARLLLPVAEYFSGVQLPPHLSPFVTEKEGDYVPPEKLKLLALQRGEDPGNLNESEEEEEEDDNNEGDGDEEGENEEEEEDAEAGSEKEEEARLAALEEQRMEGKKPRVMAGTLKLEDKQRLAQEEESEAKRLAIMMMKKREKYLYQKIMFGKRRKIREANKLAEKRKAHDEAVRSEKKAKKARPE
# The other results are listed elsewhere or left out.
# Compound: CC1Cc2ccccc2N1C(=O)C1CCCN(C1)C(=O)CCl (mixture of isomers) [TRIM25 ligand 11 (diastereomer mixture)]
# Assay: probe-labelled cysteine peptide fold change vs DMSO (competition) (log2 fold change); higher = less target engagement (more negative = stronger competition)
# Conditions: THP-1, incubation time: 4 h
# 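Also: competitive chemoproteomic profiling in live THP-1 cells with an iodoacetamide desthiobiotin (IA-DTB) probe, comparing probe-labelled peptide intensities in compound-treated cells against DMSO-treated controls.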
Target,probe-labelled cysteine peptide fold change (10 µM),probe-labelled cysteine peptide fold change (50 µM)
PGK1_P00558_99_DCVGPEVEK (UniProt P00558),-0.0873,-0.0229
PGPEP1_Q9NXJ5_99_GLDNCR (UniProt Q9NXJ5),-0.0665,0.000305
PFAS_O15067_66_KLMWLFGCPLLLDDVAR (UniProt O15067),-0.467,-0.158
PIAS4_Q8N2W9_390+405_ILSECEDADEIEYLVDGSWCPIR (UniProt Q8N2W9),-0.36,-0.0105
PHF10_Q8WUB8_451_TCIICGQPHHEEEMMFCDMCDR (UniProt Q8WUB8),-0.0635,0.087
PGP_A6NDG6_272_TVMVGDRLDTDILLGATCGLK (UniProt A6NDG6),-0.0933,-0.0353
PIAS1_O75925_228_VNTKPCSLPGYLPPTK (UniProt O75925),-0.13,-0.154
PGD_P52209_289_CLSSLKDER (UniProt P52209),-0.322,-0.0611
PHAX_Q9H814_51_AFQNTATACAPVSHYR (UniProt Q9H814),0.0131,-0.208
PHGDH_O43175_111+116_KGILVMNTPNGNSLSAAELTCGMIMCLAR (UniProt O43175),-0.19,0.131
PGAM1_P18669_55_DAGYEFDICFTSVQKR (UniProt P18669),-0.122,-0.0384
PHYKPL_Q8IUZ5_416_FKPPMCFSLDNAR (UniProt Q8IUZ5),-0.13,0.0571
PIAS1_O75925_402_YCTDCDEIQFK (UniProt O75925),0.114,0.0387
PHIP_Q8WWQ0_1165_SLIYKPLDGEWGTNPRDEECER (UniProt Q8WWQ0),-0.0812,0.0131
PFAS_O15067_351_GAHVVAGTAGYCFGNLHIPGYNLPWEDPSFQYPGNFAR (UniProt O15067),-0.161,-0.105
PHGDH_O43175_116_GILVMNTPNGNSLSAAELTCGMIMCLAR (UniProt O43175),-0.136,0.0662
PHIP_Q8WWQ0_1692_KLQYAKPEDLEQNNVHPIRDEVLPSSTCNFLSETNNVK (UniProt Q8WWQ0),0.116,-0.102
PHF11_Q9UIL8_135_NYHFFCAK (UniProt Q9UIL8),-0.0148,0.156
PHF6_Q8IWS0_85_LMCSLCHCPGATIGCDVK (UniProt Q8IWS0),0.176,0.256

Target,probe-labelled cysteine peptide fold change (10 µM),probe-labelled cysteine peptide fold change (50 µM)
PHLPP1_O60346_1028_CVPLLTGHPHLK (UniProt O60346),0.0676,0.303
PEX1_O43933_1185_TASQEGCQELTQEQR (UniProt O43933),0.0313,-0.227
PIK3AP1_Q6ZUJ8_358_NLTALLLTCPGALQAYSVANK (UniProt Q6ZUJ8),-0.0195,-0.215
PHF6_Q8IWS0_20_KCGFCK (UniProt Q8IWS0),-0.343,-0.281
PEX5_P50542_566_YNLGISCINLGAHR (UniProt P50542),-0.016,0.127
PDXP_Q96GD0_171_DPECLLVATDRDPWHPLSDGSR (UniProt Q96GD0),-0.00251,-0.0846
PFKP_Q01813_123_GITNLCVIGGDGSLTGANLFRK (UniProt Q01813),-0.349,-0.157
PFAS_O15067_606_IVLVDDRECPVRR (UniProt O15067),-0.0274,-0.07
PGGT1B_P53609_338_WPDSHPDALHAYFGICGLSLMEESGICK (UniProt P53609),-0.0872,0.137
PDXP_Q96GD0_91_AEQLFSSALCAAR (UniProt Q96GD0),-0.043,0.0581
PHGDH_O43175_18+19_VLISDSLDPCCR (UniProt O43175),0.129,0.0771
PDXP_Q96GD0_171_EACAHLRDPECLLVATDRDPWHPLSDGSR (UniProt Q96GD0),-0.112,-0.0102
PECAM1_P16284_386_SDSGTYICTAGIDK (UniProt P16284),-0.00831,0.107
PES1_O00541_153_CHVQTIQLCR (UniProt O00541),0.0494,0.219
PEX14_O75381_342_REDKEDEEDEEDDDVSHVDEEDCLGVQR (UniProt O75381),0.253,-0.0283
PHF14_O94880-2_612_LCYHFGCLDPPLK (UniProt O94880),-0.0051,-0.056
PIGT_Q969N2_272_TLTEPCPLASESR (UniProt Q969N2),0.091,-0.0616
PIAS3_Q9Y6X2_366_KPTWTCPVCDK (UniProt Q9Y6X2),0.0845,0.132
